Laboratory results reported in paper PMC5713321.
Results are given in words; binding and its absence hold for the method and conditions named. In cells and extracts the contact can be indirect. For some assays here: Binding can be weak; no strength is given. Tags and fused reporters may be left off the sequences shown.

Assays:
[1] = molecular target: T1, WHY1-MYC-GFPc155c (Arabidopsis thaliana) (UniProt Q9M9S3); test: split reporter; BiFC with GFPn173 and GFPc155 fusions under the 35S promoter, transiently co-expressed in onion epidermal cells; GFP fluorescence by microscopy
T1 sequence: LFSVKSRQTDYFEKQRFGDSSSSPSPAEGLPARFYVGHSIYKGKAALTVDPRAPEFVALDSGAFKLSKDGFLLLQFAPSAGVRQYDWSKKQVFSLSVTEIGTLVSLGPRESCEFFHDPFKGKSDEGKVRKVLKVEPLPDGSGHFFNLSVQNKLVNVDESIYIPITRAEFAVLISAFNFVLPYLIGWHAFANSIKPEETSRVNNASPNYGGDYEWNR

[2] = molecular target: T2, HA-tagged WHY1 in thylakoid membrane fractions (Arabidopsis thaliana) (UniProt Q9M9S3); test: co-IP; solubilised thylakoid membrane fractions 1, 2 and 3 of a sucrose gradient as input; antibody against the HA tag, 4 °C, protein A beads, washed with 50 mM Tris-HCl, 0.1% nonidet P-40, pH 8.0; immunoblots with antibodies against LHCA1, LHCA2, LHCA3, LHCA4 and LHCB1
T2 sequence: T1 sequence

[3] = molecular target: T3, WHY1-HA-GFPn173c (Arabidopsis thaliana) (UniProt Q9M9S3); test: split reporter; BiFC with GFPn173 and GFPc155 fusions under the 35S promoter, transiently co-expressed in onion epidermal cells; GFP fluorescence by microscopy
T3 sequence: T1 sequence

Row | Substance | binding [2] | binding [3] | other results
1 | LHCA1-HA-GFPn173c (Arabidopsis thaliana) | – | – | binding [1]: binds
2 | photosystem II protein LHCB1 (endogenous, thylakoid membrane fractions) | no binding | – | –
3 | LHCA4-GFPc155 (Arabidopsis thaliana) | – | no binding | –
4 | LHCA4 (endogenous, thylakoid membrane fractions) | no binding | – | –
5 | LHCA1-MYC-GFPc155c (Arabidopsis thaliana) | – | binds | –
